# Reference: PubChem BioAssay AID588497 (NMMLSC, 2011)
# The whole screen tested about 360,000 compounds, of which about 780 (0.22%) were called active. Inconclusive means that the source gave no clear call. Such entries were picked first, then a sample of the others. Cut-off read from the data, not from the text of the source: active = inhibition above about 35% (passing the limit was not always enough); inconclusive = no clear call, values can overlap the other calls.
# System: Botulinum neurotoxin type F light chain protease (Clostridium botulinum)
# Assay: BoNT/F light chain protease inhibitors, primary screen, biochemical, flow cytometry, MLPCN library (AID 588497); note: plate controls were buffer without enzyme for full effect and enzyme alone for no effect
# Conditions: Multiplex microsphere protease cleavage assay, at 10 µM, stronger effect = higher value
row,Structure (SMILES),inhibition
1,O=C(CCCCn1c(=O)[nH]c2ccccc2c1=O)N1CCN(c2ncccn2)CC1,inactive: -0.5%
2,COC(=O)/C(C#N)=C/c1cc(C)sc1C,inconclusive: 31.5%
3,CCOCCCNS(=O)(=O)c1ccc2c(c1)CCN2C(C)=O,inconclusive: -13.2%
4,CCOc1ccc(N(C(=O)CNC(=O)c2ccco2)C(C(=O)NC2CCCC2)c2cccnc2)cc1 (stereo unspecified),inactive: 4.3%
5,Cc1ccc(N2C(=O)NC(=O)C3(Cc4ccccc4N4CCN(c5ccccc5)CC43)C2=O)cc1 (stereo unspecified),inactive: 8.9%
6,CCCCn1c(C(C)O)nc2ccccc21 (stereo unspecified),inconclusive: -0.6%
7,C/C(CC(=O)NCc1ccco1)=N\NC(=O)Cc1cccc2ccccc12,inactive: 1%
8,CN(C)CCN1C(=O)C(=O)/C(=C(/O)c2ccc3c(c2)OCCO3)C1c1ccccn1 (stereo unspecified),inconclusive: 13.9%
9,Cc1nc2sccn2c(=O)c1S(=O)(=O)Nc1ccc(N2CCN(S(C)(=O)=O)CC2)cc1,inactive: -5.7%
10,COc1cc(CN2CCC(C(=O)NCC(C)(C)CN(C)C)CC2)ccc1OCc1ccccc1,inconclusive: -12.2%
11,Cc1cccc(C(=O)OCC(=O)Nc2ccccc2C(=O)NC2CC2)c1,inactive: -1.6%
12,N#CC1C(C#N)N2CCCN2C1c1ccc(Br)cc1 (stereo unspecified),inconclusive: -16.6%
13,COc1ccc(S(=O)(=O)N(C)c2ccc(C(=O)Nc3cccnc3)cc2)cc1,inactive: -0.8%
14,CC(c1ccccc1)n1c(-c2ccc(C(C)(C)C)cc2)n[nH]c1=S (stereo unspecified),inconclusive: -8%
15,CCCCN1C(=S)NC[C@@H]1Cc1ccc(O)cc1,inactive: -6%
16,COc1ccc(NC(=O)c2ccccc2NC(=O)COc2ccccc2)cc1,inactive: -7.2%
17,CC1(C)CC(NC(=O)C(=O)NCCc2ccccc2)CC(C)(C)N1,inconclusive: 1.6%
18,CCOC(=O)COc1nc(-c2ccc(Cl)cc2)cc(-c2ccco2)c1C#N,inconclusive: -26.5%
19,O=C(OCc1nc2ccccc2[n+]([O-])c1C(=O)c1ccccc1)c1cccnc1,inconclusive: -6.9%
20,Oc1ccc(-c2nnc(SCc3ccccc3)o2)cc1,inconclusive: -44.2%
21,CCC[N+](C)(C)C(C)C(OC(C)=O)c1ccccc1 (stereo unspecified),inconclusive: -45.5%
22,O=C(NCc1ccco1)c1cc(-c2ccccc2)nn1CC1CC(c2cccnc2)=NO1 (stereo unspecified),inactive: -7.9%
23,CCCCn1c(=O)nc2n(-c3ccccc3C)c3ccccc3cc-2c1=O,inactive: 2.8%

# Single entries from the list.
# inhibition with CCOC(=O)COc1nc(-c2ccc(Cl)cc2)cc(-c2ccco2)c1C#N reads inconclusive: -26.5%
# inhibition with O=C(NCc1ccco1)c1cc(-c2ccccc2)nn1CC1CC(c2cccnc2)=NO1 (stereo unspecified) reads inactive: -7.9%
# inhibition with CCC[N+](C)(C)C(C)C(OC(C)=O)c1ccccc1 (stereo unspecified) reads inconclusive: -45.5%
# inhibition with COc1ccc(S(=O)(=O)N(C)c2ccc(C(=O)Nc3cccnc3)cc2)cc1 reads inactive: -0.8%

# (continued)

row,Structure (SMILES),inhibition
1,O=C(N/N=C/C=C/c1cccc([N+](=O)[O-])c1)c1ccncc1,inconclusive: 9.5%
2,O=C(O)c1cccc(NC(=O)c2cn(-c3ccccc3)nc2-c2ccc(F)cc2)c1,inconclusive: -0.5%
3,COc1cc(/C=C2\COC/C(=C\c3ccc(O)c(OC)c3)C2=O)ccc1O,inconclusive: 56.5%
4,Cc1cccc(C(C)(C)C)c1OCCOCCN1CCCC1,active: 37.6%
5,COc1ccc(F)c(CN2CCCC(CO)(Cc3cccc(Cl)c3)C2)c1 (stereo unspecified),inconclusive: 29.6%
6,CC(=O)N1CCN(S(=O)(=O)c2ccc(S(=O)(=O)NCC(C)C)cc2)CC1,inconclusive: -25.6%
7,S=C(NCCN1CCOCC1)N/N=C/c1cccs1,inconclusive: 5.9%
8,CCOc1ccccc1-n1c(SCC(=O)N2CCCc3ccccc32)nnc1-c1cccnc1,inactive: -7.2%
9,Cc1cc(C)nc(Nc2nc(-c3ccccc3)cs2)n1,inconclusive: -41.9%
10,CC(C)(C)c1ccc(C(=O)NNC(=O)c2ccncc2)cc1,inconclusive: 43.9%
11,Cc1ccc(-n2nc3c(c2NC(=O)c2ccccc2)CS(=O)(=O)C3)cc1C,inactive: 0.8%
12,O=C(Nc1ccccc1)C1C2CCCCC21 (stereo unspecified),inconclusive: 9.3%
13,Cc1ccc(N(C)S(=O)(=O)c2cc3c(cc2C)NC(=O)CO3)cc1,inactive: -3%
14,CC(=O)NNC(=O)CCn1c2c(c3ccccc31)CCCC2,inconclusive: -12.1%
15,O=C(/C=C/c1cccs1)Nc1scc(-c2ccccc2)c1C(=O)O,inactive: -25.9%
16,O=C(Nc1nc2ccccc2s1)c1ccccc1[N+](=O)[O-],inconclusive: 6.1%
17,CN1C(=O)N(C)C2(c3ccccc3)NC(=O)NC12c1ccccc1 (stereo unspecified),inactive: 6.4%
18,COCc1cc(=O)[nH]c(-c2ccc(C(F)(F)F)cc2)n1,inconclusive: 19.7%
19,Nc1nc(C(F)(F)F)cc(=O)[nH]1,inconclusive: 57.5%
20,OCC1(Cc2ccc(F)cc2F)CCCN(Cc2ccc(Cl)cc2)C1 (stereo unspecified),inconclusive: -8.4%
21,COc1ccc(N=CC=C2OC(C)(C)C(C)(C)O2)cc1OC,inconclusive: 0.6%
22,O=C(COC(=O)C1=NN(c2ccccc2)C(=O)CC1)Nc1nc(-c2ccc(F)cc2)cs1,inactive: 2.7%
23,O=C(Nc1ccc(F)c(Cl)c1)c1nsc(Cl)c1Cl,inconclusive: -25.6%

row,Structure (SMILES),inhibition
1,COc1ccc2[nH]c(-c3ccccc3)cc2c1,inactive: -3.9%
2,CC(C)N(C(=O)Cn1cc(S(=O)(=O)CC(=O)Nc2ccccc2)c2ccccc21)C(C)C,inactive: -7.3%
3,O=C(C1=C(O)/C(=C/c2ccc(O)cc2)CCC1)C(F)(F)F,inactive: 0.7%
4,COCCn1c(SCC(=O)N2CCCC2)nnc1-c1ccoc1C,inconclusive: 1.1%
5,Cc1ccc(Cn2c(CCCO)nc3ccccc32)cc1,inconclusive: 9.3%
6,COc1ccc(C2C(C#N)=C(N)N(N(C)C)C3=C2C(=O)CCC3)cc1 (stereo unspecified),active: 56.8%
7,CCCCNC(=O)C[C@@H]1C[C@@]2(C(=O)OC)CCCCC=C2N(Cc2ccccc2)C1=O,inactive: 3.5%
8,O=S(=O)(Cc1ccccc1)Nc1cccc(F)c1,inconclusive: 10.9%
9,COc1ccccc1Nc1ncccc1[N+](=O)[O-],inconclusive: -0.7%
10,Cc1cc(-c2ccccc2)[nH]c(=O)c1S(=O)(=O)c1ccccc1,inactive: -1%
11,Cc1cc(C)cc(OCC(=O)OC(C)C(=O)Nc2c(C)n(C)n(-c3ccccc3)c2=O)c1 (stereo unspecified),inconclusive: 15.5%
12,O=C1CCN(S(=O)(=O)c2ccccc2)CCN1CCOCc1ccc(C(F)(F)F)cc1,inactive: -6.1%
13,COc1ccc(/C=C/C(=O)N2CCN(C)CC2)cc1OC,inconclusive: -10.8%
14,CC(=O)Nc1ccc(S(=O)(=O)N2CCN(c3ccc([N+](=O)[O-])cc3)CC2)cc1,inconclusive: 14.7%
15,CN(C)S(=O)(=O)c1cccc(NC(=O)COC(=O)CNC(=O)c2ccccc2F)c1,inactive: -7.9%
16,CCCN(CC(=O)Nc1ccccc1OC)C(=O)c1ccc2c(c1)NC(=O)C(C)S2 (stereo unspecified),inactive: 0.7%
17,CCC12CCCN3CCc4c(n(c5ccccc45)C(O)(C(=O)OC)C1)C32 (stereo unspecified),inactive: -20.4%
18,O=C(Nc1nnc(/C=C/c2ccccc2)s1)c1ccco1,inconclusive: -40%
19,CCOc1ccc(C(=O)OC2CCCN(C)C2)cc1 (stereo unspecified),inconclusive: -7.6%
20,COc1ccc(S(=O)(=O)N2CCCCCC2)cc1N(C)S(=O)(=O)c1ccc(Cl)cc1,active: 36.9%
21,CCOC(=O)C1=C(C)NC(C)=C(C(=O)OCC)C1,inconclusive: -8.8%
22,CCCN1CCC(N2CCN(c3ccc([N+](=O)[O-])cc3)CC2)CC1,inconclusive: 7.6%
23,Cc1cc(SCC(=O)c2ccccc2)n2ncc(-c3ccccc3)c2n1,inconclusive: 70.4%

row,Structure (SMILES),inhibition
1,NC(c1ccccc1)c1ccncc1 (stereo unspecified),inconclusive: 20.1%
2,Cn1nc(C(=O)Nc2ccc(S(=O)(=O)N3CCCCC3)cc2)ccc1=O,inconclusive: 2.9%
3,O=C(CN1C(=O)c2ccccc2S1(=O)=O)c1ccc2c(c1)OCCCO2,inconclusive: -26.3%
4,CN(CCc1ccccc1)C1CCCN(S(=O)(=O)CC(F)(F)F)C1 (stereo unspecified),inconclusive: -32.1%
5,C/C(=N\NC(=O)C1(C)NC(C)(C)Cc2ccccc21)c1ccccc1 (stereo unspecified),inactive: -5%
6,CCCCn1c(N)c(N(Cc2ccccc2OC)C(=O)C2=COCCO2)c(=O)[nH]c1=O,inconclusive: 7.4%
7,CCC(CC)c1nnc(NC(=O)CC(C)c2ccccc2)s1 (stereo unspecified),inconclusive: -21.7%
8,CC(C)c1ccc(NC(=S)Nc2cccc3ccccc23)cc1,inactive: -8.1%
9,O=C(CC1NCCNC1=O)NC1Cc2ccccc2C1 (stereo unspecified),inconclusive: -11.1%
10,COc1ccc(NC(=O)COc2cccc3c2OC(C)(C)C3)cc1OC,inconclusive: -29.3%
11,O=C(Cc1ccccc1)Nc1cccc(N2CCCC2)c1,inactive: -25%
12,Cc1cccc(OC(C)c2ccnc3nc(/N=C/N(C)C)nn23)c1 (stereo unspecified),inactive: -3.9%
13,O=C(NCc1ccccc1)c1c[nH]c2cc3c(cc2c1=O)OCCO3,inactive: 0.4%
14,O=C(COC(=O)c1ccc(Cl)c(S(=O)(=O)N2CCOCC2)c1)NCc1ccco1,inactive: 1%
15,COc1cccc(-c2cc(C(F)(F)F)nc(N3CCOCC3)n2)c1,inactive: 11.4%
16,Nc1nc(SCc2ccc(F)cc2)ns1,inactive: -3.4%
17,C=C(C)CNC(=O)C1CCC(=O)N(CCCc2ccccc2)C1 (stereo unspecified),inconclusive: -25.8%
18,CC[C@@]1(C(=O)OC)N[C@H](CN(C)S(=O)(=O)c2ccc(OC)cc2)[C@@H]2C(=O)N(C)C(=O)[C@@H]21,inactive: -2.9%
19,Cc1ccc(C(=O)N/N=C\c2ccc(-c3ccc(Cl)cc3)o2)cn1,inconclusive: 142%
20,Cc1sc2ncn(CC(=O)OC(C)C(=O)NC(C)(C)C)c(=O)c2c1C (stereo unspecified),inconclusive: 10.9%
21,c1ccc(-c2nc(N3CCCCCC3)nc(-n3ccnc3)n2)cc1,inconclusive: -2%
22,O=S(=O)(c1ccc(F)cc1)N1CCCN(c2nccc(C(F)(F)F)n2)CC1,inconclusive: -22.9%
